In the supplement of paper PMC10849652:
Some of the results follow.

Chains of the proteins cited; added tags and fusions are not shown. Lines headed by an entry give the natural chain unless they say otherwise; changes in a name come on top.
UniProt Q96SN8: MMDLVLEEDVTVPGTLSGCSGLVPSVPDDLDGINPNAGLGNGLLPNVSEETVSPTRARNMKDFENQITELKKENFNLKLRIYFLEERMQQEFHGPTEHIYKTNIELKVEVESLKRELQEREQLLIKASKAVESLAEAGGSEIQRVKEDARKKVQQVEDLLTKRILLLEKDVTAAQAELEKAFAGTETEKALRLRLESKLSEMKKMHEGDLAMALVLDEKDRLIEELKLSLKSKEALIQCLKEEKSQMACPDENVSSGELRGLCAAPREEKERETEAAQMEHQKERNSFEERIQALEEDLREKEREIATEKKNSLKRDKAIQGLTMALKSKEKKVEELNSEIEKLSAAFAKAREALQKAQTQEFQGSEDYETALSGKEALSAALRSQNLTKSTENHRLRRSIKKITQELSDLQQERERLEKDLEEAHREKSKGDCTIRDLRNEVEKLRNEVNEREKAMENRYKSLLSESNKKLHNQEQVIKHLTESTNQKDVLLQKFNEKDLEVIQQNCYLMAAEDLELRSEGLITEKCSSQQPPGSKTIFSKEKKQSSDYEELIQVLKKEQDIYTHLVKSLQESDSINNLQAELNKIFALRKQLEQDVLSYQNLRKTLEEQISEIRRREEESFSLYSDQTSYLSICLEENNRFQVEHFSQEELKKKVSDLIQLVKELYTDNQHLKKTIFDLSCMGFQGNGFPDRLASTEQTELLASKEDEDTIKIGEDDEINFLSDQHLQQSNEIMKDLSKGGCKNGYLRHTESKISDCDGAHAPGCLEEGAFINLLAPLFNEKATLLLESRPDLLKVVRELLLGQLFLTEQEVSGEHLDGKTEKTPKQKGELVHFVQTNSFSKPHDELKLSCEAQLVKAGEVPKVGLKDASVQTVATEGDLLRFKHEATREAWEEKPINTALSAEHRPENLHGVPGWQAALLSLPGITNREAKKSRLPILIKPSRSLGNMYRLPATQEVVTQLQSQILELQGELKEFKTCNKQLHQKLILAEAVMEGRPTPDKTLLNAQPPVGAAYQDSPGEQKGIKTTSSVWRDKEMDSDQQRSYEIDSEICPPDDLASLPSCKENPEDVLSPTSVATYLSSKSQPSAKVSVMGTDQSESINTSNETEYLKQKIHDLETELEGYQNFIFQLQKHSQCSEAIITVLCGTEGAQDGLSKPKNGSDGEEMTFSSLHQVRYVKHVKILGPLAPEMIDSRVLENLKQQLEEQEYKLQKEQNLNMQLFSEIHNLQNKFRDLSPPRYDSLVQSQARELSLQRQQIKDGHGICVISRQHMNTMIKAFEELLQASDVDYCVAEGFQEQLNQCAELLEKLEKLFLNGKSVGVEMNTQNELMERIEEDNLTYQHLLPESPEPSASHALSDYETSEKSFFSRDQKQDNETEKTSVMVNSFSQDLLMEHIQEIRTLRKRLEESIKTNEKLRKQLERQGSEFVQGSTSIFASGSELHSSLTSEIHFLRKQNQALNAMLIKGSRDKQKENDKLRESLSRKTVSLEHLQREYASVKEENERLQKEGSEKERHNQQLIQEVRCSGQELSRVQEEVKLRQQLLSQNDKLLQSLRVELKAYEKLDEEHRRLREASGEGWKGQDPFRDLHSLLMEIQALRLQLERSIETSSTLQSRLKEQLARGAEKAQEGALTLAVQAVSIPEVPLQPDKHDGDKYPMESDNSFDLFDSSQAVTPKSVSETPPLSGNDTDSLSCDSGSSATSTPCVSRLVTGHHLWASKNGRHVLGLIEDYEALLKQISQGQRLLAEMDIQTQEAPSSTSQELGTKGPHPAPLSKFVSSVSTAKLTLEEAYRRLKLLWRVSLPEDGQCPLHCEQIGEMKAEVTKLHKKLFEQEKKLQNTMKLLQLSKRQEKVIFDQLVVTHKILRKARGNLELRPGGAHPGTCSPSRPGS
UniProt Q8TAP6: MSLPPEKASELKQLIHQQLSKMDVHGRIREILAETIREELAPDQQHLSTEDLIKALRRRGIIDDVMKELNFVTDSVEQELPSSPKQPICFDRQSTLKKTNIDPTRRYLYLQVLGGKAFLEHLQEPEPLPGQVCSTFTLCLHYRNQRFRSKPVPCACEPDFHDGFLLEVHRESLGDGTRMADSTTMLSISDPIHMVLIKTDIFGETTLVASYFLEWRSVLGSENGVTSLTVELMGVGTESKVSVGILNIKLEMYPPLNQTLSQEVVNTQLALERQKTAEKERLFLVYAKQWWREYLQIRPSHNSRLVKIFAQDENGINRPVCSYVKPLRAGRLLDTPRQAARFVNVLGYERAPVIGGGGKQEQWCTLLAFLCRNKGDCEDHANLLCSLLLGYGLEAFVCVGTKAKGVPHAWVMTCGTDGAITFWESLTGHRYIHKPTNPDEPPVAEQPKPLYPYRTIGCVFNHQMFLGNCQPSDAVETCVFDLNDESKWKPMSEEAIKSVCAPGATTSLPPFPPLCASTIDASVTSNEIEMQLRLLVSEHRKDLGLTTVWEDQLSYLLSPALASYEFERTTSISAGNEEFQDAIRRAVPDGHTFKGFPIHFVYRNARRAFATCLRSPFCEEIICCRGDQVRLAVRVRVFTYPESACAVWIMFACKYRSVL
UniProt P21127: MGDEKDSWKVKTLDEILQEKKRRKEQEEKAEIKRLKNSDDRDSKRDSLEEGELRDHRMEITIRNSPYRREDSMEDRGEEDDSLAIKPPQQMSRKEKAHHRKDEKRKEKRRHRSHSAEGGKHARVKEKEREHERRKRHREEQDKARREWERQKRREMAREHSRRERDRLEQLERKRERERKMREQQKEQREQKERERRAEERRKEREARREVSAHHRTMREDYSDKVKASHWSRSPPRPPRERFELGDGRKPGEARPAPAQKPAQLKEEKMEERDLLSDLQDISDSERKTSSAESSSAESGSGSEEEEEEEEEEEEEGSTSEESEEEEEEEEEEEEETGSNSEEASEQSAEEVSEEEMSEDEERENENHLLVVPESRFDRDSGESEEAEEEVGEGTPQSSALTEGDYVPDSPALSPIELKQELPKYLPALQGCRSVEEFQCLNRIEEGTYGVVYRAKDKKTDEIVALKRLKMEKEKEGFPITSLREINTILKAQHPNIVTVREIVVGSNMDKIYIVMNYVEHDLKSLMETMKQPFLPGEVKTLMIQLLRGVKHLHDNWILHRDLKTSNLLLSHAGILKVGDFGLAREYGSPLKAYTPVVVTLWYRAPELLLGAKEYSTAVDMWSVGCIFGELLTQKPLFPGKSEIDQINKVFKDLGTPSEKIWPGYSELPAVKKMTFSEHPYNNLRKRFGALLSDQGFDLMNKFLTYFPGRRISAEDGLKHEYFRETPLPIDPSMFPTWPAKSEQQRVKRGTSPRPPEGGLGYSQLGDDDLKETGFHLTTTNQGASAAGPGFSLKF
UniProt O60508: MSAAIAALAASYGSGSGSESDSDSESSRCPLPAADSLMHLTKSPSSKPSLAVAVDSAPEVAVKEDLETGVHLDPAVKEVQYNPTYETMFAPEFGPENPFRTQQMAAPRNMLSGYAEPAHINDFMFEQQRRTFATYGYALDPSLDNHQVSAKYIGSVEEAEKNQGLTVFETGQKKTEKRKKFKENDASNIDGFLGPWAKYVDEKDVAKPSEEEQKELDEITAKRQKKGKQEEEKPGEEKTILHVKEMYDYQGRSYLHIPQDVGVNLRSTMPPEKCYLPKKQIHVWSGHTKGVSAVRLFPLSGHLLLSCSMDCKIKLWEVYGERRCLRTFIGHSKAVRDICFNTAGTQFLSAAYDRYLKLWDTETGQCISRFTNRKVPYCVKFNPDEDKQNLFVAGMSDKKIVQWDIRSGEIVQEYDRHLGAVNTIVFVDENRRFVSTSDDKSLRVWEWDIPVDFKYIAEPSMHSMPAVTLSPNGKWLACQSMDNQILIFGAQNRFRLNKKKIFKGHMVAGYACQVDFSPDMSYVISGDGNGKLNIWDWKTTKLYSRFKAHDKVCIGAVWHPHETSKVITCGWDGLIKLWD
UniProt Q9NRR3: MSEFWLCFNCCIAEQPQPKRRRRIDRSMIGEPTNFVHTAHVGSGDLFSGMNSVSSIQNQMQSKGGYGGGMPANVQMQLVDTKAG
UniProt O00748: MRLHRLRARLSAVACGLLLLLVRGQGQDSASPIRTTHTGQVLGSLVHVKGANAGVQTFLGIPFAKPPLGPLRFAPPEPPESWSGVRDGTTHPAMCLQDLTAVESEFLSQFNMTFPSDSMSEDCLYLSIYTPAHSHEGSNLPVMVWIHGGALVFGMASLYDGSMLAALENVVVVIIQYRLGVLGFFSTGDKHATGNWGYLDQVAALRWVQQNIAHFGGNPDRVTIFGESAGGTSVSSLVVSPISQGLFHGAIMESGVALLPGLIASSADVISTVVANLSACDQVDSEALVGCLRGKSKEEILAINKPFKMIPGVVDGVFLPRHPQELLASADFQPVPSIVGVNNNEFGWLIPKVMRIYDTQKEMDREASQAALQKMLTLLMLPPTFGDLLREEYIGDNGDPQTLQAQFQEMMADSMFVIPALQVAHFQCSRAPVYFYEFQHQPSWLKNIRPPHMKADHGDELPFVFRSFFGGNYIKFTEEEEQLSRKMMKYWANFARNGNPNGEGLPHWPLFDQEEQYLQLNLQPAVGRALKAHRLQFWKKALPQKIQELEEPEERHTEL
UniProt Q9Y6A4: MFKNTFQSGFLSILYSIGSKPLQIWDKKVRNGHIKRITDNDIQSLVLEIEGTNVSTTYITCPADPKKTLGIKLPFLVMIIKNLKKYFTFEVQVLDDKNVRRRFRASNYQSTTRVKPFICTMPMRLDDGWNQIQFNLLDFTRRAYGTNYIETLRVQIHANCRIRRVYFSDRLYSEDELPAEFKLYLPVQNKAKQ
UniProt O75419: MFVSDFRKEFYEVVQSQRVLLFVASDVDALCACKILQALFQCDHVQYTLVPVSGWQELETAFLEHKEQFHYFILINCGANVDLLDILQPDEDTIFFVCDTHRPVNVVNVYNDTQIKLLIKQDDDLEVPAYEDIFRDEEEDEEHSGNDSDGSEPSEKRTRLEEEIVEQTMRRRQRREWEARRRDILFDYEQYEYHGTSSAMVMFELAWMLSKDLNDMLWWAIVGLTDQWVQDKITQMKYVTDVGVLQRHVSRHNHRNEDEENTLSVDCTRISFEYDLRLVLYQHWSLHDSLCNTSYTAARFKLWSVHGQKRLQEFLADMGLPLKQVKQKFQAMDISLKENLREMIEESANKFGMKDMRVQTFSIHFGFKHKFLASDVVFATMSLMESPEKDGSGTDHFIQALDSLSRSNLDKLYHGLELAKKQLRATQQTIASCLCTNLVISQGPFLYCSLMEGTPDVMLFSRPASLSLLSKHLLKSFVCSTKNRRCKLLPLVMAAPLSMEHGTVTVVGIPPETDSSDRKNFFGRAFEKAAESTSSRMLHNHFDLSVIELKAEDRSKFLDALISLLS
UniProt Q13042, whole entry, looked up: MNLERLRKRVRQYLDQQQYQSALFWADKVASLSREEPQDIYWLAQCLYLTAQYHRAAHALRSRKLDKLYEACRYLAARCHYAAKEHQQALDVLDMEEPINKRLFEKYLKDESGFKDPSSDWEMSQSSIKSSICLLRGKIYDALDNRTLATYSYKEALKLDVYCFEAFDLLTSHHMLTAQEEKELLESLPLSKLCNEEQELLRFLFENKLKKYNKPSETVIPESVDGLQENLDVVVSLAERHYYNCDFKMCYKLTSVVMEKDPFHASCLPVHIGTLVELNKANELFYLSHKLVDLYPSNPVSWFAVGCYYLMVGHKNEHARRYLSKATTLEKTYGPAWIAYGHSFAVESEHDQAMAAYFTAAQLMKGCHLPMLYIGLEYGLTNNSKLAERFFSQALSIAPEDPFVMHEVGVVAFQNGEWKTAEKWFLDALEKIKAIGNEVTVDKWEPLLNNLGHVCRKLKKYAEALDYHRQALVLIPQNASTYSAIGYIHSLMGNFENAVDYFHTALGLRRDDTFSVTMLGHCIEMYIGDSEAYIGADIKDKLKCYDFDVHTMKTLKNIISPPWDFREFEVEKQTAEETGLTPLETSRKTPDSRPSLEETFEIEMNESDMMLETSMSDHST
UniProt Q9NXV6: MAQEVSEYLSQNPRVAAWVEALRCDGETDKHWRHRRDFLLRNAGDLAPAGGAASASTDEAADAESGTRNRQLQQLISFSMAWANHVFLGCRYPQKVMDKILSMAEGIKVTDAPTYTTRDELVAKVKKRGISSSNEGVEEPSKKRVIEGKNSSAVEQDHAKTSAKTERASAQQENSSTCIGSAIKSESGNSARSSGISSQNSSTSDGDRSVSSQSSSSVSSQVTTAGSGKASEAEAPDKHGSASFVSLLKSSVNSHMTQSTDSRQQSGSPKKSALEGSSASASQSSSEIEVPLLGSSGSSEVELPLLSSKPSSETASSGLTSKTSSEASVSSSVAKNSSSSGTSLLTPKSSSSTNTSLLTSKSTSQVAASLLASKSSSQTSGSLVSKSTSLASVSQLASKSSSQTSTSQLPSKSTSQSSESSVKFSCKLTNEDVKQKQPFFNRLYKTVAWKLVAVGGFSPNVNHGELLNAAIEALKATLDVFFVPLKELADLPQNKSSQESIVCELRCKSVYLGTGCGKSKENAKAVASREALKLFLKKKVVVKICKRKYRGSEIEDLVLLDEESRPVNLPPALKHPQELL

Experiments:
Experiment in all cases: log2 fold change, soluble protein after heating vs DMSO (PISA); higher = thermal stabilisation; K562 lysate, 10 uM; active = over 0.2 and 3.5 SD of the protein, either way, in both replicates (recomputed)
ibrutinib = compound: C=CC(=O)N1CCC[C@@H](n2nc(-c3ccc(Oc4ccccc4)cc3)c3c(N)ncnc32)C1 [ibrutinib]
How it was run: (§1)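 Log-two fold change in thermal stability relative to solvent controls is reported from duplicates. For each sample, crude K562 extract from dounce-homogenised pellets in PBS pH 7.4 with 1 mM MgCl2, at 1 mg/mL protein, was treated with 10 μM compound for 30 min. Aliquots heated for 3 min across 48°C-58°C were pooled, brought to 0.5% NP-40 at 4°C and cleared at 21,000xg for 90 min. The supernatant was quantified by TMTpro 16plex LC-MS/MS with channel sums equalised.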

[1] = compound: CC(=O)c1cnc2ccc(-c3cc(Cl)c(O)c(Cl)c3)nc2c1N[C@H]1CC[C@H](CN(C)C)CC1
How it was run: as §1

ralimetinib = compound: CC(C)(C)Cn1c(N)nc2ccc(-c3[nH]c(C(C)(C)C)nc3-c3ccc(F)cc3)nc21 [ralimetinib]
How it was run: as §1

[2] = compound: CC(C)(O)CC(=O)NCCn1ccc2ncnc(Nc3ccc(Oc4cccc(C(F)(F)F)c4)c(Cl)c3)c21
How it was run: as §1

[3] = compound: CC(C)C1=C2N=C(C=C(N2N=C1)NCC3=CC=CC=C3)NCCCCCCN
How it was run: as §1

[4] = compound: CC1=C(C(CC(=O)N1)C2=CC=C(C=C2)C(F)(F)F)C(=O)NC3=C(C=C4C(=C3)C=NN4)F
How it was run: as §1

[5] = compound: CC1=C(C2=C(C=C1)C(=O)C3=CC=CC=C3N2CCCN)C
How it was run: as §1

[6] = compound: CC1=C(C=C(C=C1)NC(=O)C2=CC(=CC=C2)C(C)(C)C#N)NC3=CC4=C(C=C3)N=CN(C4=O)C
How it was run: as §1

[7] = compound: CC1=C(C=C(C=C1)NC(=O)C2=CC(=CC=C2)N(C)C)NC(=O)C3=CC=C(C=C3)O
How it was run: as §1

[8] = compound: CC1=CC=C(C=C1)SC2=C3C=C(SC3=CN=C2)C(=O)N
How it was run: as §1

vemurafenib = compound: CCCS(=O)(=O)Nc1ccc(F)c(C(=O)c2c[nH]c3ncc(-c4ccc(Cl)cc4)cc23)c1F [vemurafenib]
How it was run: as §1

[9] = compound: CCCS(=O)(=O)Nc1ccc(F)c(C(=O)c2c[nH]c3ncc(Cl)cc23)c1F
How it was run: as §1

barasertib = compound: CCN(CCCOc1ccc2c(Nc3cc(CC(=O)Nc4cccc(F)c4)[nH]n3)ncnc2c1)CCOP(=O)(O)O [barasertib]
How it was run: as §1

[10] = compound: CC[C@@H]1C(=O)N(C)c2cnc(Nc3ccc(C(=O)NC4CCN(C)CC4)cc3OC)nc2N1C1CCCC1
How it was run: as §1

volasertib = compound: CC[C@@H]1C(=O)N(C)c2cnc(Nc3ccc(C(=O)N[C@H]4CC[C@H](N5CCN(CC6CC6)CC5)CC4)cc3OC)nc2N1C(C)C [volasertib]
How it was run: as §1

[11] = compound: CCn1c(C(=O)N(C2CC2)C2CC2)cc2c3c(ncn3C)c(Nc3cc(C)n(C)n3)nc21
How it was run: as §1

[12] = compound: CCn1cc(-c2ccnc3[nH]c(-c4cccc(CN(C)C)c4)cc23)c(-c2ccc(NC(=O)N(C)C)cc2)n1
How it was run: as §1

[13] = compound: CN1CCC(CNc2ccc3ncc(-c4cccc(OC(F)(F)F)c4)n3n2)CC1
How it was run: as §1

saracatinib = compound: CN1CCN(CCOc2cc(OC3CCOCC3)c3c(Nc4c(Cl)ccc5c4OCO5)ncnc3c2)CC1 [saracatinib]
How it was run: as §1

sotrastaurin = compound: CN1CCN(c2nc(C3=C(c4c[nH]c5ccccc45)C(=O)NC3=O)c3ccccc3n2)CC1 [sotrastaurin]
How it was run: as §1

Measured: log2 fold change

CDK5RAP2 (UniProt Q96SN8)
inactive: ibrutinib -0.022 | ralimetinib -0.006 | [2] 0.01 | [3] -0.019 | [4] -0.001 | [5] -0.044 | [6] -0.007 | [7] 0.003 | [8] 0.067 | vemurafenib -0.023 | [9] -0.186 | barasertib 0.071 | [10] 0.029 | volasertib -0.3 | [11] 0.001 | [12] 0.016 | [13] -0.067 | saracatinib 0.027 | sotrastaurin -0.008
active: [1] 0.268

CENPF (UniProt P49454)
inactive: ibrutinib 0.022 | [1] -0.04 | ralimetinib 0.016 | [2] -0.012 | [3] -0.016 | [4] 0.012 | [5] -0.006 | [6] 0.006 | [7] -0.006 | [8] -0.03 | vemurafenib 0 | [9] 0.02 | barasertib 0.003 | [10] 0.132 | volasertib 0.004 | [11] 0.02 | [12] 0.083 | [13] -0.041 | saracatinib 0.01 | sotrastaurin 0.003

CDC23 (UniProt Q9UJX2)
inactive: ibrutinib 0.022 | [1] 0.004 | ralimetinib -0.002 | [2] -0.017 | [3] 0.006 | [4] -0.004 | [5] 0.016 | [6] 0.01 | [7] 0.002 | [8] 0.035 | vemurafenib 0 | [9] -0.001 | barasertib 0.003 | [10] -0.022 | volasertib -0.044 | [11] 0.026 | [12] 0.022 | [13] -0.018 | saracatinib 0.016 | sotrastaurin -0.005

CEP76 (UniProt Q8TAP6)
inactive: ibrutinib -0.004 | [1] 0.081 | ralimetinib 0.019 | [2] 0.003 | [3] -0.002 | [4] -0.019 | [5] -0.063 | [6] 0.051 | [7] 0 | [8] -0.005 | vemurafenib -0.099 | [9] -0.023 | barasertib 0.085 | [10] -0.093 | volasertib 0 | [11] -0.026 | [12] -0.04 | [13] 0.053 | saracatinib 0.047 | sotrastaurin 0.085

CDK11B (UniProt P21127)
inactive: ibrutinib -0.008 | ralimetinib 0.028 | [2] 0.034 | [3] 0.01 | [4] -0.027 | [5] -0.011 | [6] 0 | [7] 0.01 | [8] 0.003 | vemurafenib 0.025 | [9] 0.002 | barasertib 0.022 | [10] -0.087 | volasertib -0.057 | [11] 0.029 | [12] -0.047 | [13] -0.048 | saracatinib -0.024 | sotrastaurin 0.01
active: [1] 0.438

CDC40 (UniProt O60508)
inactive: ibrutinib 0.02 | [1] 0.034 | [2] 0.016 | [3] -0.115 | [4] 0.084 | [5] -0.019 | [6] 0.056 | [7] 0.136 | [8] -0.028 | vemurafenib 0.01 | [9] 0.013 | barasertib -0.016 | [10] -0.105 | volasertib -0.001 | [11] 0.034 | [12] -0.006 | [13] 0.046 | saracatinib -0.056 | sotrastaurin -0.049
active: ralimetinib -0.219

CDC42SE2 (UniProt Q9NRR3)
inactive: ibrutinib 0.042 | [1] 0.023 | ralimetinib -0.01 | [2] -0.017 | [3] 0.018 | [4] -0.099 | [5] -0.07 | [6] 0.011 | [7] -0.036 | [8] 0.004 | vemurafenib -0.061 | [9] -0.002 | barasertib -0.036 | [10] 0.009 | volasertib 0.058 | [11] -0.037 | [12] 0.009 | [13] -0.112 | saracatinib -0.028 | sotrastaurin -0.024

CES2 isoform 4 (UniProt O00748)
inactive: [1] -0.048 | ralimetinib -0.031 | [2] 0.057 | [3] -0.004 | [4] 0.202 | [5] -0.128 | [6] 0.079 | [7] -0.019 | [8] -0.025 | vemurafenib 0.03 | [9] -0.024 | barasertib -0.052 | [10] -0.012 | volasertib 0.004 | [11] -0.046 | [12] 0.002 | [13] 0.034 | saracatinib -0.001 | sotrastaurin -0.017
active: ibrutinib 0.431

Looked up one by one from the entries so far (2):
CDK11B (UniProt P21127)
inactive: ibrutinib -0.008 | ralimetinib 0.028 | [2] 0.034 | [3] 0.01 | [4] -0.027 | [5] -0.011 | [6] 0 | [7] 0.01 | [8] 0.003 | vemurafenib 0.025 | [9] 0.002 | barasertib 0.022 | [10] -0.087 | volasertib -0.057 | [11] 0.029 | [12] -0.047 | [13] -0.048 | saracatinib -0.024 | sotrastaurin 0.01
active: [1] 0.438

CES2 isoform 4 (UniProt O00748)
inactive: [1] -0.048 | ralimetinib -0.031 | [2] 0.057 | [3] -0.004 | [4] 0.202 | [5] -0.128 | [6] 0.079 | [7] -0.019 | [8] -0.025 | vemurafenib 0.03 | [9] -0.024 | barasertib -0.052 | [10] -0.012 | volasertib 0.004 | [11] -0.046 | [12] 0.002 | [13] 0.034 | saracatinib -0.001 | sotrastaurin -0.017
active: ibrutinib 0.431

(listing goes on)

CFAP20 (UniProt Q9Y6A4)
inactive: ibrutinib -0.006 | [1] -0.006 | ralimetinib 0.013 | [2] -0.025 | [3] -0.008 | [4] 0.011 | [5] 0.002 | [6] 0.015 | [7] 0.05 | [8] 0.006 | vemurafenib 0.021 | [9] 0.016 | barasertib 0.001 | [10] 0.053 | volasertib 0.013 | [11] -0.012 | [12] -0.258 | [13] 0.119 | saracatinib 0.005 | sotrastaurin 0.009

CDC26 (UniProt Q8NHZ8)
inactive: ibrutinib 0.19 | [1] -0.032 | ralimetinib 0.057 | [2] -0.035 | [3] 0.039 | [4] 0.069 | [5] -0.035 | [6] 0.084 | [7] 0.026 | [8] 0.014 | vemurafenib 0.149 | [9] -0.011 | barasertib 0.143 | [10] 0.033 | volasertib 0.024 | [11] -0.004 | [12] 0.005 | [13] 0.027 | saracatinib 0.043 | sotrastaurin -0.055

CEP131 (UniProt Q9UPN4)
inactive: ibrutinib 0.025 | [1] -0.043 | ralimetinib -0.052 | [2] -0.017 | [3] 0.066 | [4] -0.035 | [5] 0.002 | [6] 0.095 | [7] 0.04 | [8] 0.004 | vemurafenib -0.145 | [9] 0.108 | barasertib -0.122 | [10] 0.108 | volasertib 0.009 | [11] -0.075 | [12] -0.031 | [13] 0.058 | saracatinib 0.011 | sotrastaurin 0.023

CDCP1 (UniProt Q9H5V8)
inactive: ibrutinib 0.039 | [1] -0.022 | ralimetinib 0.08 | [2] -0.013 | [3] -0.057 | [4] 0.008 | [5] 0.017 | [6] -0.007 | [7] -0.008 | [8] -0.019 | vemurafenib -0.009 | [9] 0.029 | barasertib 0.017 | [10] -0.071 | volasertib 0.012 | [11] -0.017 | [12] -0.074 | [13] 0.078 | saracatinib 0.018 | sotrastaurin 0.011

CDC45 isoform 3 (UniProt O75419)
inactive: ibrutinib 0.034 | [1] 0.045 | ralimetinib 0.014 | [2] 0.021 | [3] -0.005 | [4] 0.036 | [5] -0.006 | [6] -0.032 | [7] 0.031 | [8] -0.004 | vemurafenib 0.009 | [9] 0.042 | barasertib -0.015 | [10] -0.05 | volasertib -0.017 | [11] -0.05 | [12] -0.096 | [13] -0.04 | saracatinib 0.007 | sotrastaurin 0.027

CDC16 (UniProt Q13042)
inactive: ibrutinib 0.02 | [1] 0.019 | ralimetinib 0.025 | [2] -0.022 | [3] 0.012 | [4] -0.006 | [5] 0.04 | [6] -0.029 | [7] -0.005 | [8] 0.025 | vemurafenib -0.042 | [9] 0.001 | barasertib -0.018 | [10] -0.074 | volasertib -0.063 | [11] 0.043 | [12] 0.046 | [13] -0.041 | saracatinib -0.005 | sotrastaurin 0.02

CDC42EP1 (UniProt Q00587)
inactive: ibrutinib -0.022 | [1] 0.052 | ralimetinib -0.047 | [2] -0.033 | [3] 0.03 | [4] 0.147 | [5] -0.197 | [6] -0.027 | [7] 0.096 | [8] -0.023 | vemurafenib 0.079 | [9] -0.041 | barasertib -0.09 | [10] 0.011 | volasertib -0.079 | [11] -0.086 | [12] -0.048 | [13] -0.173 | saracatinib 0.138 | sotrastaurin -0.006

CDKN2AIP (UniProt Q9NXV6)
inactive: ibrutinib -0.003 | [1] -0.038 | ralimetinib -0.013 | [2] 0.029 | [3] -0.04 | [4] -0.009 | [5] 0.03 | [6] 0.004 | [7] -0.019 | [8] -0.009 | vemurafenib 0.017 | [9] 0.022 | barasertib -0.028 | [10] 0.082 | volasertib -0.008 | [11] -0.026 | [12] -0.049 | [13] 0.03 | saracatinib -0.004 | sotrastaurin 0.01
